Among the data in paper PMC12373823 are binding values, retold here.

Protein sequences, listed by entry. Tags and fused reporters are not part of them.
UniProt O15260: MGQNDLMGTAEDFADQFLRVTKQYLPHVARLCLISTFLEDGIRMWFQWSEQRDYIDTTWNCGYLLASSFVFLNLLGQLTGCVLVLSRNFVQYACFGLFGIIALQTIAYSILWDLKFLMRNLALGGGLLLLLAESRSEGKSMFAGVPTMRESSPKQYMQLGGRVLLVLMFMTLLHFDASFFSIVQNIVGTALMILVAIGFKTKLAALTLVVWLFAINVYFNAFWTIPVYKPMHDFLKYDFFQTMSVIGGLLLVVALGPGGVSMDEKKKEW
UniProt Q86WV6: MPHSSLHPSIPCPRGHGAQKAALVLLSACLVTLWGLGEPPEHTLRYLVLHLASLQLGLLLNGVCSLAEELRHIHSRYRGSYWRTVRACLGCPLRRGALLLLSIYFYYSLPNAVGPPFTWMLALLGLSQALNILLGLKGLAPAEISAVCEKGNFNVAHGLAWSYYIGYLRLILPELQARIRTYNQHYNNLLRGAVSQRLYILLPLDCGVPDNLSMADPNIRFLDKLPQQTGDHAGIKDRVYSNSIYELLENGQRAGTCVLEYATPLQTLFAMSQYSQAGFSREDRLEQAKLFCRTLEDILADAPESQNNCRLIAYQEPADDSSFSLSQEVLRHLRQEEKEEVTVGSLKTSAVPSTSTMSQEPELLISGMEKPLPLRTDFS

No constants are given. Whether binding was seen depends on the method and setting. In cells and extracts the contact can be indirect. Some results given as binding are weak or reduced against the parent protein; the word gives no strength.

Experiment [1] deals with SURF4 (UniProt O15260). Kind of experiment: co-IP; lysate of JE-6 T cells; magnetic beads with antibody, 4 °C overnight, three washes with IP wash buffer (NP-40, NaCl, Tris-HCl, SDS); which protein was precipitated is not told.
Experiment [2] concerns the target SURF4 (UniProt O15260). Nature of the experiment: co-IP; lysate of HEK 293T cells; magnetic beads with antibody, 4 °C overnight, three washes with IP wash buffer (NP-40, NaCl, Tris-HCl, SDS); which protein was precipitated is not told.

On to “stimulator of interferon genes (STING) (from UniProt Q86WV6 1-379)”, for which the binding result in experiment [1] and in experiment [2] was “binds” in each case.
